Here are results for one molecule from patent publication US8828966B2, “Method for treatment of macular degeneration by modulating P2Y12 or P2X7 receptors” (priority 2006, dated 2014).

For assay [1], the system named is ARPE-19 cells. Description: Lysosomal pH (pHL) with LysoSensor Yellow/Blue, high through-put screen. In kind it is cell-based. The settings on record: Homo sapiens, concentration dependent rise in pH, FIG. 2B. The method, then: Lysosensor Yellow/Blue co-localized with the Lysotracker Red dye in small vesicles, with a distribution consistent with lysosomal origin. Measurements of pHL were performed using a high throughput screening (HTS) protocol to maximize output and minimize variation using ARPE-19 cells in 96 well plates. […] Loading for 5 min. at 23° C. with 5 μM lysosensor, followed by 15 min. for internalization, produced stable and reproducible results.
The ratio was converted to pH by calibrating with KCl buffered to pH 4.0-6.0 in the presence of monensin and nigericin. Calibration indicated a baseline pH of 4.4 to 4.5, supporting lysosomal localization. […] NH4Cl decreased the ratios slightly at 380 nm. Nevertheless, absent the addition of the dye, none of these compounds, or any others, altered the fluorescent signal at 340 or 380 nm, showing a specificity of the measured change to pHL. […] This quantification is necessary to predict the potential effectiveness of acidifying drugs to restore lysosomal enzyme activity.
Extensive trials determined that the optimal response is obtained with 5 minute dye loading and 15 minute post-incubation. […] All reagents were from Sigma Chemical Corp. unless otherwise indicated.
In general, each condition below used 3-12 independent wells per plate, in 3-6 separate plates. […] Significance was determined with a one-way ANOVA and Tukey post test. […]

The subject of assay [2] is isolated mice RPE cells. Description: Lysosomal pH (340/380 nm ratio) in freshly isolated mouse RPE cells. It counts as cell-based. The settings on record: tamoxifen 30 μM.

For orientation: EC50 means the concentration at which the effect is half-maximal. Low values mean a more potent agent, high ones a less potent agent.

Each structure is given as a SMILES string.

The molecule `CC/C(=C(\c1ccccc1)c1ccc(OCCN(C)C)cc1)c1ccccc1` [tamoxifen] gave an EC50 in assay [1] of 22 µM. Moreover, in assay [2], the “340/380 nm ratio (index of lysosomal pH)” value was “increased the 340/380 nm ratio”.
